Literature values in US10113000B2, “Combination therapies for B-cell lymphomas comprising administration of anti-CD20 antibody” (BIOGEN INC., priority 1998, dated 2018).
For at least one compound, name, drawing or mass did not settle the structure.

Tested on: CLL
Conditions: 25-30 mg/m^2/d every 3-4 weeks

Nc1nc(F)nc2c1ncn2[C@@H]1O[C@H](CO)[C@@H](O)[C@@H]1O [Fludarabine]
ORR: 50%
